# Assay results reported in publication doi:10.1101/2022.11.04.515179.
# The chains behind the UniProt entries cited, without tags or fusion partners.
# UniProt O15527, whole entry: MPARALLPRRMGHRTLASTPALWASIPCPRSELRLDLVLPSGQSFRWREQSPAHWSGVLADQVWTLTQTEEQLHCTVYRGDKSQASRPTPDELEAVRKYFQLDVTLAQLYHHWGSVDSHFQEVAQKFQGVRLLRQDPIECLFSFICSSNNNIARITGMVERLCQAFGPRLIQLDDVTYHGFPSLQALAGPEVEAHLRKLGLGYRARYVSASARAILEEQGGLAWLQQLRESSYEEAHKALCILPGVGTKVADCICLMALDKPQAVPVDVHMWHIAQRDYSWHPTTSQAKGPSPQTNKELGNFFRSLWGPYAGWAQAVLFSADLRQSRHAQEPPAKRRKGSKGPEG
# The exact form of at least one protein or probe is not confirmed. At least one verdict rests on a figure or table, not on a statement of the authors.
# Target: GST-OGG1 WT (human) (UniProt O15527)
# Assay: EMSA
# Settings: 0-160 nM protein; 8-oxoG at position 16 of strand 1; residues 1-345
sequence,measurement,value
GGCTTCATCGTTGTCGCAGACCTGGTGGATACCG (double strand) [Cy5 34-mer 8-oxoG:C],binding result,binds
